Measurements reported in patent publication US9163020B2, “Azaindole compounds, synthesis thereof, and methods of using the same” (Global Alliance for TB Drug Development, priority 2013, dated 2015).
In brackets after ≈: the same amount, converted by molar mass. For at least one compound, name, drawing or mass did not settle the structure.

Assays:
Mtb DprE1 C387S = type: cell-based, Mycobacterium tuberculosis
Mtb DprE1 C387G = type: cell-based, Mycobacterium tuberculosis
Mtb DprE1 Y314H = type: cell-based, Mycobacterium tuberculosis
[1] = system: Mycobacterium tuberculosis (Mtb) H37Rv ATCC 27294; type: cell-based

## CC1COc2c(N3CCN(C)CC3)c(F)cc3c(=O)c(C(=O)O)cn1c23 (stereo not shown) [Ofloxacin]
Mtb DprE1 C387S
  MIC, Mtb DprE1 C387S: 0.5 µM (≈ 0.181 µg/mL)
Mtb DprE1 C387G
  MIC, Mtb DprE1 C387G: 0.5 µM (≈ 0.181 µg/mL)
Mtb DprE1 Y314H
  MIC, Mtb DprE1 Y314H: 0.5 µM (≈ 0.181 µg/mL)

## CO[C@H]1/C=C/O[C@@]2(C)Oc3c(C)c(O)c4c(O)c(c(/C=N/N5CCN(C)CC5)c(O)c4c3C2=O)NC(=O)/C(C)=C\C=C\[C@H](C)[C@H](O)[C@@H](C)[C@@H](O)[C@@H](C)[C@H](OC(C)=O)[C@@H]1C [Rifampicin]
[1]
  MIC, Mtb H37Rv: 0.01 µM (≈ 0.00823 µg/mL)
Mtb DprE1 C387S
  MIC, Mtb DprE1 C387S: 0.003 µM (≈ 0.00247 µg/mL)
Mtb DprE1 C387G
  MIC, Mtb DprE1 C387G: 0.003 µM (≈ 0.00247 µg/mL)
Mtb DprE1 Y314H
  MIC, Mtb DprE1 Y314H: 0.006 µM (≈ 0.00494 µg/mL)

## COc1c(N2C[C@@H]3CCCN[C@@H]3C2)c(F)cc2c(=O)c(C(=O)O)cn(C3CC3)c12 [Moxifloxacin]
Mtb DprE1 C387S
  MIC, Mtb DprE1 C387S: 0.06 µM (≈ 0.0241 µg/mL)
Mtb DprE1 C387G
  MIC, Mtb DprE1 C387G: 0.06 µM (≈ 0.0241 µg/mL)
Mtb DprE1 Y314H
  MIC, Mtb DprE1 Y314H: 0.06 µM (≈ 0.0241 µg/mL)
